Measured values published in article PMC6086839, “Elongator mutation in mice induces neurodegeneration and ataxia-like behavior” (Nature Communications, 2018).
No constants are given. Whether binding was seen depends on the method and setting. Some results given as binding are weak or reduced against the parent protein; the word gives no strength.

T1: mouse Elongator complex subunit 6 with the wobbly mutation (mElp6L126Q) (mouse) (UniProt Q8BK75)
T1 sequence: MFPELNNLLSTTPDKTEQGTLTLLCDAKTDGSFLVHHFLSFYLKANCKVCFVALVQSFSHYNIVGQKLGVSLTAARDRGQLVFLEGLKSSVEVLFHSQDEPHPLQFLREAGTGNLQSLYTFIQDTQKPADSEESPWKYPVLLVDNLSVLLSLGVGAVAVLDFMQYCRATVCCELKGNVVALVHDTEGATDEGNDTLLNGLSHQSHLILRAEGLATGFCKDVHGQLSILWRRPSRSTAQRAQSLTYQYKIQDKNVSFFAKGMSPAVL

T2: mouse Elongator complex subunit 6 (mElp6), wild type (mouse) (UniProt Q8BK75)
T2 sequence: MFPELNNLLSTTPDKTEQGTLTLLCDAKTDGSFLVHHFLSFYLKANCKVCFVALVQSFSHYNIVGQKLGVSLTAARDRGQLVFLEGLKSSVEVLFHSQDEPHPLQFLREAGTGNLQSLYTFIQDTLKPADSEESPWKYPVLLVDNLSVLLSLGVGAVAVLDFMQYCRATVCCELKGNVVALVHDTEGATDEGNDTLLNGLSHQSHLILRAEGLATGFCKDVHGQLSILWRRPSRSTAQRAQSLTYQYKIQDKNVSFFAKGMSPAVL

T3: yeast Elongator complex subunit 5 (yElp5) (S. cerevisiae) (UniProt P38874)
T3 sequence: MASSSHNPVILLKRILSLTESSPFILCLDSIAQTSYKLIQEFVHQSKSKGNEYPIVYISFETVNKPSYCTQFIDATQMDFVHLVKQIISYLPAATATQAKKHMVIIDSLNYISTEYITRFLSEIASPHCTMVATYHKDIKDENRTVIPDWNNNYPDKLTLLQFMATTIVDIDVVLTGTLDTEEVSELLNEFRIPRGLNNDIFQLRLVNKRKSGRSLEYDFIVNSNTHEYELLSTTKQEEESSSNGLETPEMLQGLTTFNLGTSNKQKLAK

T4: yeast Elongator complex subunit 6 (yElp6) (S. cerevisiae) (UniProt Q04868)
T4 sequence: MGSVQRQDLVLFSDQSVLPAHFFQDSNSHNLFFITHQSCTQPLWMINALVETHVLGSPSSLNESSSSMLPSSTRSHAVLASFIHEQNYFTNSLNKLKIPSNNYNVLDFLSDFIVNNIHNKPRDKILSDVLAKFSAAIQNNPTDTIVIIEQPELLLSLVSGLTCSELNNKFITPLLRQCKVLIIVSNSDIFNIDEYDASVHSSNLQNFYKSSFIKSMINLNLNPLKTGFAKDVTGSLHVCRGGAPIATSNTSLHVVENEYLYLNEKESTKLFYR

T5: mouse Elp5 residues 1-250 (mElp5_(1-250)) (mouse) (UniProt Q99L85)
T5 sequence: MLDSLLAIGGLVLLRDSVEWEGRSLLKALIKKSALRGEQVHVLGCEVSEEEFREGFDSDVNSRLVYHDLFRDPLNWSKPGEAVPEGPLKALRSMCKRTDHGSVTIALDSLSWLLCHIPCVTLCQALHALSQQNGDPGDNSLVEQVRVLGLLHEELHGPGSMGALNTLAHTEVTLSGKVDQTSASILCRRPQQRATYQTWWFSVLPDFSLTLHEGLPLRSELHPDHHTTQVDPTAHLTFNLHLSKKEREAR

T6: mouse Elongator complex subunit 5 (mElp5) (mouse) (UniProt Q99L85)
T6 sequence: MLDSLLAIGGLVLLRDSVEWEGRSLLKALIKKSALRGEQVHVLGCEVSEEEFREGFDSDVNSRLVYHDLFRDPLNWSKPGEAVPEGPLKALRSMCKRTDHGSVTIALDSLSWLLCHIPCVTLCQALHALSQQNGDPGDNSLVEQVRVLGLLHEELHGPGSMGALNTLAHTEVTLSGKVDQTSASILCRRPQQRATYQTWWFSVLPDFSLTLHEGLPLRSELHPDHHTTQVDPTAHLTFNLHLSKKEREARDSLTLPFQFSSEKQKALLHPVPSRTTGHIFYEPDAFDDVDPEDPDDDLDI


Assays:
[1] = target: T1, mouse Elongator complex subunit 6 with the wobbly mutation (mElp6L126Q) (mouse); assay: co-purification (NiNTA affinity, then SEC); subunits co-expressed in E. coli; truncated complexes purified as complexes and then used for Thermofluor; both purified
[2] = target: T2, mouse Elongator complex subunit 6 (mElp6), wild type (mouse); assay: as above
[3] = target: T3, yeast Elongator complex subunit 5 (yElp5) (S. cerevisiae); assay: SEC; subunits co-expressed in E. coli, complex purified by NiNTA, then size-exclusion chromatography (Superdex 200) in 20 mM HEPES pH 7.5, 150 mM NaCl, 5 mM DTT; fractions analysed by SDS-PAGE; both purified
[4] = target: T4, yeast Elongator complex subunit 6 (yElp6) (S. cerevisiae); assay: as above
[5] = target: T1, mouse Elongator complex subunit 6 with the wobbly mutation (mElp6L126Q) (mouse); assay: as above
[6] = target: T2, mouse Elongator complex subunit 6 (mElp6), wild type (mouse); assay: as above
[7] = target: T5, mouse Elp5 residues 1-250 (mElp5_(1-250)) (mouse); assay: co-purification (NiNTA affinity, then SEC); subunits co-expressed in E. coli; truncated complexes purified as complexes and then used for Thermofluor; both purified
[8] = target: T6, mouse Elongator complex subunit 5 (mElp5) (mouse); assay: as above
[9] = target: T6, mouse Elongator complex subunit 5 (mElp5) (mouse); assay: SEC; subunits co-expressed in E. coli, complex purified by NiNTA, then size-exclusion chromatography (Superdex 200) in 20 mM HEPES pH 7.5, 150 mM NaCl, 5 mM DTT; fractions analysed by SDS-PAGE; both purified

| Binder | binding [1] | binding [2] | binding [4] | binding [5] | binding [6] | other results |
| --- | --- | --- | --- | --- | --- | --- |
| mouse Elp5 residues 1-250 (mElp5_(1-250)) (domain or fragment, UniProt Q99L85 1-250) MLDSLLAIGGLVLLRDSVEWEGRSLLKALIKKSALRGEQVHVLGCEVSEEEFREGFDSDVNSRLVYHDLFRDPLNWSKPGEAVPEGPLKALRSMCKRTDHGSVTIALDSLSWLLCHIPCVTLCQALHALSQQNGDPGDNSLVEQVRVLGLLHEELHGPGSMGALNTLAHTEVTLSGKVDQTSASILCRRPQQRATYQTWWFSVLPDFSLTLHEGLPLRSELHPDHHTTQVDPTAHLTFNLHLSKKEREAR | binds | binds | – | – | – | – |
| yeast Elongator complex subunit 4 (yElp4) (protein, UniProt Q02884 1-456) MSFRKRGEILNDRGSGLRGPLLRGPPRTSSTPLRTGNRRAPGNVPLSDTTARLKKLNIADESKTKMGLDSSHVGVRPSPATSQPTTSTGSADLDSILGHMGLPLGNSVLVEEQSTTEFHSILGKLFAAQGIVHNRISDSSADKTRNGDTHVIVLSLNQMFAKELPGIYKGSRKQMKKNLISEEESKVTVQNLNETQRSTPSRYKDLKIAWKYKLADEKRLGSPDRDDIQQNSEYKDYNHQFDITTRLMPAPIASELTFIAPTQPVSTILSQIEQTIKRNDKKLIRIVIPSLLHPAMYPPKMFESSEIIGLMHGVRSLVKKYYERVVLFASISIDIITPPLLVLLRNMFDSVINLEPFNQEMTEFLERVYKSQPGKIQHGLVHILKLPVFTDRGEMRVLKSEWAFKNGRKKFEIEQWGIPVDDAEGSAASEQSHSHSHSDEISHNIPAKKTKISLDY | – | – | binds | – | – | binding [3]: binds |
| yeast Elp5 residues 1-270 (yElp5_(1-270)) (domain or fragment, S. cerevisiae, UniProt P38874 1-270, looked up, Elp5, yeast, residues 1-270; source: purified complex) MASSSHNPVILLKRILSLTESSPFILCLDSIAQTSYKLIQEFVHQSKSKGNEYPIVYISFETVNKPSYCTQFIDATQMDFVHLVKQIISYLPAATATQAKKHMVIIDSLNYISTEYITRFLSEIASPHCTMVATYHKDIKDENRTVIPDWNNNYPDKLTLLQFMATTIVDIDVVLTGTLDTEEVSELLNEFRIPRGLNNDIFQLRLVNKRKSGRSLEYDFIVNSNTHEYELLSTTKQEEESSSNGLETPEMLQGLTTFNLGTSNKQKLAK | – | – | binds | – | – | – |

Now from value to binder, other results behind:

| binding [1] | binding [2] | binding [4] | binding [5] | binding [6] | Binder | other results |
| --- | --- | --- | --- | --- | --- | --- |
| binds | binds | – | binds | binds | mouse Elongator complex subunit 5 (mElp5) (protein, UniProt Q99L85 1-300) MLDSLLAIGGLVLLRDSVEWEGRSLLKALIKKSALRGEQVHVLGCEVSEEEFREGFDSDVNSRLVYHDLFRDPLNWSKPGEAVPEGPLKALRSMCKRTDHGSVTIALDSLSWLLCHIPCVTLCQALHALSQQNGDPGDNSLVEQVRVLGLLHEELHGPGSMGALNTLAHTEVTLSGKVDQTSASILCRRPQQRATYQTWWFSVLPDFSLTLHEGLPLRSELHPDHHTTQVDPTAHLTFNLHLSKKEREARDSLTLPFQFSSEKQKALLHPVPSRTTGHIFYEPDAFDDVDPEDPDDDLDI | – |
| binds | binds | – | – | – | mouse Elp4 residues 49-389 (mElp4_(49-389)) (domain or fragment, UniProt Q9ER73 49-389) AGTRPSVRNGQLLVSTGLPALDQLLGGGLAVGTLLLIEEDKYNIYSPLLFKYFMAEGIINGHTLLVASAKENPAKILQELPAPLLDDNSKKELEDVHSAKTPEPNVNMKIAWRYQLQPKMEVGPVSSSRFGHYYDLSKRIPWELLQSSKWHGFFLPEHISPDLKGESCFLSCGYMRLLEFIQKSVYAEGFDGANPQKKQKNILRIGIQNLGSPLWGDDICCKENCDNNHRLTKFLYILRGLLRSSLSACIITMPAHLVQNKSITTRVRNLSDTVVGLESFIGSERETNPLYKDYHGLIHIRKIPRLNNLTCDESDVKDLAFKLKRKLFTIERLHLPPDLSD | binding [7]: binds; binding [8]: binds |
| – | – | – | binds | binds | mouse Elongator complex subunit 4 (mElp4) (protein, UniProt Q9ER73 1-422) MAAADTCGAGTLSSRSVASEAGQGGTSSFQRKGKASGGPGGGPRLLSIAGTRPSVRNGQLLVSTGLPALDQLLGGGLAVGTLLLIEEDKYNIYSPLLFKYFMAEGIINGHTLLVASAKENPAKILQELPAPLLDDNSKKELEDVHSAKTPEPNVNMKIAWRYQLQPKMEVGPVSSSRFGHYYDLSKRIPWELLQSSKWHGFFLPEHISPDLKGESCFLSCGYMRLLEFIQKSVYAEGFDGANPQKKQKNILRIGIQNLGSPLWGDDICCKENCDNNHRLTKFLYILRGLLRSSLSACIITMPAHLVQNKSITTRVRNLSDTVVGLESFIGSERETNPLYKDYHGLIHIRKIPRLNNLTCDESDVKDLAFKLKRKLFTIERLHLPPDLSDTVGRSSKQDLAASTARLGAGCSSMAEGKKHLDF | binding [9]: binds |
